No constants are given. Whether binding was seen depends on the method and setting. Binding seen in cells or lysates may run through a third protein. Some entries that bind do so weakly or less than the wild type.
Target: MBD2 (Methyl-CpG-binding domain 2), full length, Flag-tagged (UniProt Q9UBB5)
Assay: co-IP; lysates of transfected 293T, TFK1 or RBE cells in IP buffer; A/G magnetic beads + antibody or Flag-coupled magnetic beads, 4 °C, 12 h; five washes; immunoblot

Amino acid sequences for entries named in this document (tags omitted).
UniProt Q9UBB5: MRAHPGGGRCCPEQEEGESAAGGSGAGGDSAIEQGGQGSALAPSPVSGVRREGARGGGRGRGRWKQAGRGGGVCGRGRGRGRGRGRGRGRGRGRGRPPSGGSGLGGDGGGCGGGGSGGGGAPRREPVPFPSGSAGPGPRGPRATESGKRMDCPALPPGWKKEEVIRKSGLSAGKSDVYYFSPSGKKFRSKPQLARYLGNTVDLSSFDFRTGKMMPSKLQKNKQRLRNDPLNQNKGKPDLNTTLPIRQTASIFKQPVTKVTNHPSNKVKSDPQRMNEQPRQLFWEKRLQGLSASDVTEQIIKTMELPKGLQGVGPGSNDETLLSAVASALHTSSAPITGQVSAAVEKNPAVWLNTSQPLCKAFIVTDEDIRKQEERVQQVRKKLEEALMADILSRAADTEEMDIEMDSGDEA
UniProt Q13547: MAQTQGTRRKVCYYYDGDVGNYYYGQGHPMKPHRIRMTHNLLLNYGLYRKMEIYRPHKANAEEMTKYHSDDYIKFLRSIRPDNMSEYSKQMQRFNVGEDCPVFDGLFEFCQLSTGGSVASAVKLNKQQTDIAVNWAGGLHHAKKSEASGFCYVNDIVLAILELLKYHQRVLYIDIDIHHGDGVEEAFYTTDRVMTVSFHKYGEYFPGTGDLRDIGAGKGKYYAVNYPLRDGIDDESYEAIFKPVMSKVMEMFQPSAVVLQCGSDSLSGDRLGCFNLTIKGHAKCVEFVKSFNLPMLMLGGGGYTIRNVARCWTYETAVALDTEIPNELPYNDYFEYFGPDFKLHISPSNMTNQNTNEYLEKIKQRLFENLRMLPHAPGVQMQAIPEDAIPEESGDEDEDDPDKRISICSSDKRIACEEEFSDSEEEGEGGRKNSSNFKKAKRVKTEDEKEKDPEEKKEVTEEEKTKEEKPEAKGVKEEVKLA
UniProt Q92769: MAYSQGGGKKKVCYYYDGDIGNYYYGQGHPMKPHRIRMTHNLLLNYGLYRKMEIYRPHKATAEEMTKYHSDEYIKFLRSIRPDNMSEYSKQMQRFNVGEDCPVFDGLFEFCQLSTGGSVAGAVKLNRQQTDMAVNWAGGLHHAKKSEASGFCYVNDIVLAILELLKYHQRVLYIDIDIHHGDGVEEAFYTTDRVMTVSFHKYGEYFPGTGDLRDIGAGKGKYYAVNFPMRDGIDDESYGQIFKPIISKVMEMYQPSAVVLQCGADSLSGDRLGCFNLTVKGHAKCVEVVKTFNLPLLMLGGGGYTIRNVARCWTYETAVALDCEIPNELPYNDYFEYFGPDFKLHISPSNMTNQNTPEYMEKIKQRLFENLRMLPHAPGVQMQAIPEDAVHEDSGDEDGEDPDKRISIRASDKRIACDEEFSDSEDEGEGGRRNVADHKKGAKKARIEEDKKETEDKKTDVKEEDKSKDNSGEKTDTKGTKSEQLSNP

Row | binding | Substance
1 | binds | HDAC1 (histone deacetylase 1) (from UniProt Q13547 1-482) (enzyme)
2 | binds | HDAC2 (histone deacetylase 2) (from UniProt Q92769 1-488) (enzyme)
